Test results as given in PubChem BioAssay AID330 (DTP/NCI, 2004).
The list is a part of this screen's results and no random one: it gathers tests that were run many times, whatever their T/C, doses with no T/C, and many T/C values between a quarter and a half above the control. Other doses and runs of a compound stand elsewhere. T/C is the treated group as % of the vehicle group. Some doses have a count of surviving animals in place of a T/C: the source files T/C as zero there, which appears to mark a toxic dose or a test without result, not a measured value. Some survivor counts are full or nearly so, which does not show that the dose was tolerated: survival well below the control is almost never listed, so the zero probably covers shortened survival too. Counts of survivors are from the toxicity check (mostly the fifth day) where no day follows; animals may have died later. Schedules are NCI's codes, taken here to give the interval after Q, in days (D) or hours (H), and the number of doses after X. Where survival is the endpoint, the PubChem record calls one and a half times the control and up active, and a quarter to a half above the control has no call in these data; cut-offs in other NCI protocols can differ.

System: P388 leukemia ip, CD2F1 mice, survival T/C
Test: NCI In Vivo Anticancer Drug Screen. Data for tumor model P388 Leukemia (intraperitoneal) in CD2F1 (CDF1) mice
Conditions: T/C endpoint: median survival time, vehicle: saline with Tween-80, higher T/C = longer survival; for survivor count: schedule: Q01DX005 (ip)

CCOC1N(c2ccc(Cl)cc2)CN(C)CC1(C)C (centres undefined)
T/C (dose: 200.0 mg/kg/injection, schedule: Q01DX009 (ip)): 126 % of control

Cc1cc2c(cc1C)C(=O)c1c(C)ccc(C)c1C2=O
survivor count (dose: 100.0 mg/kg/injection): 5 of 5 | survivor count (dose: 200.0 mg/kg/injection): 5 of 5

CSc1nc(NC2OC(COC(C)=O)C(OC(C)=O)C(OC(C)=O)C2OC(C)=O)c(N=C(C)C(C)=O)c(=O)n1C (centres undefined)
survivor count (dose: 240.0 mg/kg/injection): 6 of 6
